Measured values reported in publication PMC6237423.
Results are given in words; binding and its absence hold for the method and conditions named. Binding seen in cells or lysates may run through a third protein. Some binding calls cover weakened binding; strength is not graded here.

Sequences of proteins named here, by UniProt entry; tags and fusion partners are left off.
UniProt P09874: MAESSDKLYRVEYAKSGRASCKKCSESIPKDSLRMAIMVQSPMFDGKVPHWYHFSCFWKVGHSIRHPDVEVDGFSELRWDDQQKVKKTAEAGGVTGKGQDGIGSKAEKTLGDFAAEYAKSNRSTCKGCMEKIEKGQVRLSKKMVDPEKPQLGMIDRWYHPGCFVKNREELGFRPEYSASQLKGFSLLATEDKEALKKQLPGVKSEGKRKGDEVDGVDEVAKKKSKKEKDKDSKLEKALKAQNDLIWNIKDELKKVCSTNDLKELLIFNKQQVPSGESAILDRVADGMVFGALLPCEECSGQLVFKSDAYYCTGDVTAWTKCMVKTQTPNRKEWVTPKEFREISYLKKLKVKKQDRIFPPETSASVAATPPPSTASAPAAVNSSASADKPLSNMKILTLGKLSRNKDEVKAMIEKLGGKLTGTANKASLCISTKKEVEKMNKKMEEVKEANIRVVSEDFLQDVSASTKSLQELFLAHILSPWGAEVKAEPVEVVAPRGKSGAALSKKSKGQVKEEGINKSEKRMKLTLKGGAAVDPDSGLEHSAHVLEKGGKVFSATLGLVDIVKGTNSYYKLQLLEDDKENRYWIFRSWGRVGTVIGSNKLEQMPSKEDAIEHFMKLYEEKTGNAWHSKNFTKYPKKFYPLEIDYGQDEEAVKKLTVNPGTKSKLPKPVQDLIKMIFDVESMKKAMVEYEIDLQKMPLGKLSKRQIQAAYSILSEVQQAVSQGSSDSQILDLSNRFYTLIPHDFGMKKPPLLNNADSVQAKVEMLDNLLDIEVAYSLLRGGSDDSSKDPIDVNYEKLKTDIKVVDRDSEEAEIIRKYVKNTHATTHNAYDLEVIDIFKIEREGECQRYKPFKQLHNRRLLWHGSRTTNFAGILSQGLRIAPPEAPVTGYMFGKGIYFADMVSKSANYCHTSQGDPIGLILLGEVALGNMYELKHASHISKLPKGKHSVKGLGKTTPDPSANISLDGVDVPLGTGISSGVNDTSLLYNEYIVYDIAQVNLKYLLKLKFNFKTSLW
UniProt Q16665: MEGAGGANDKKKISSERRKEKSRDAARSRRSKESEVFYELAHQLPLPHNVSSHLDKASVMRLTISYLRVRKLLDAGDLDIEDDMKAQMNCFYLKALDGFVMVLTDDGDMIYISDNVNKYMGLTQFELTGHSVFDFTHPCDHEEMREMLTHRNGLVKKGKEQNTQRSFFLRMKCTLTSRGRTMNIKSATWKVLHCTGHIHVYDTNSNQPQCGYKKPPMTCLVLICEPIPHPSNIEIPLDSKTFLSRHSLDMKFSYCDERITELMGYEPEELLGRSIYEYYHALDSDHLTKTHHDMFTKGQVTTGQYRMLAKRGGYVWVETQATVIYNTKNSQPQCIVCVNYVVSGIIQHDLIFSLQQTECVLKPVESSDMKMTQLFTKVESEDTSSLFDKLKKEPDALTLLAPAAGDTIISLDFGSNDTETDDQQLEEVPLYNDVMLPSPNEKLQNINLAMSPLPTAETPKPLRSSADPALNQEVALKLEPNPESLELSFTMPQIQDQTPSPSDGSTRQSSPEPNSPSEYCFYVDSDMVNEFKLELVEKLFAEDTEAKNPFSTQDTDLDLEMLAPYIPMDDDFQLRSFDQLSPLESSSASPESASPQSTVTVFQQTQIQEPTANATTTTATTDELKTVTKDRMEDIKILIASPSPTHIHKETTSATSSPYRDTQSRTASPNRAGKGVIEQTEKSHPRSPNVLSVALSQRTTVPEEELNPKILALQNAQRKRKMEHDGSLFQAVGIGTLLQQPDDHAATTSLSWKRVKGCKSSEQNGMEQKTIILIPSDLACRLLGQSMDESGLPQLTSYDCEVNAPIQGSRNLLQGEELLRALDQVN

Target: Poly(ADP-ribose) polymerase 1 (human (endogenous in DG75)) (UniProt P09874)
Assay: co-IP; DG75 cells, LMP1- and LMP1+ (interaction increased around 40% in LMP1+), 5x10^6 cells in RIPA buffer; supernatant with 5 ug PARP1 antibody (IgG as control) overnight at 4°C, Protein A/G magnetic beads, three washes with RIPA; western blot for HIF-1α

binding: binds
Substance: hypoxia-inducible factor 1-alpha (from UniProt Q16665 1-826)
